These are yes or no findings as the source states them, for the method shown. For some assays here: Binding seen in cells or lysates may run through a third protein. Some binding calls cover weakened binding; strength is not graded here. For some assays here: Sequences can lack the tags named with a protein.
T1: full-length ABF2, in vitro translated and 35S-Met-labelled (Arabidopsis) (UniProt Q9M7Q4)
T1 sequence (35S-Met-labelled, looked up): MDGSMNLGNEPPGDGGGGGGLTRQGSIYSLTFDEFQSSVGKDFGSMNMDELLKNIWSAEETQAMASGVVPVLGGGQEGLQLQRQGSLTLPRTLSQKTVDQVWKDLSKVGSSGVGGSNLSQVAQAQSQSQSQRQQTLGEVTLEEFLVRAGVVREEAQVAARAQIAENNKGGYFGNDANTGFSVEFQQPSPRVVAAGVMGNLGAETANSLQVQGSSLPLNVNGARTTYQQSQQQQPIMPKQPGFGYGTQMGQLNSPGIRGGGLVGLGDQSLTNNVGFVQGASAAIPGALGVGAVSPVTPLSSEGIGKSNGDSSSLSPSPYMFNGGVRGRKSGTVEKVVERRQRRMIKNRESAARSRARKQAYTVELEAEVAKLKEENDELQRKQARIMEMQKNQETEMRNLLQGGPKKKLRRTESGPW

The chains behind the UniProt entries cited, without tags or fusion partners. Where a name states a change or a piece, a line headed by the entry shows the natural chain unless it says otherwise.
UniProt P0A7C2: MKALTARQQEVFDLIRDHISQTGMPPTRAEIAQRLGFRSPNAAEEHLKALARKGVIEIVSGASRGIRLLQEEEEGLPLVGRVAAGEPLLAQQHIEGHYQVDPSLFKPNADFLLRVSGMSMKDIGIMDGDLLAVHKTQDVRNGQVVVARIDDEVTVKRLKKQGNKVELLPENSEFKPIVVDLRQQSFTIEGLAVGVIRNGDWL


Tests used:
[1] = target: T1, full-length ABF2, in vitro translated and 35S-Met-labelled (Arabidopsis); assay: GST pulldown of 35S-labelled ABF2, autoradiography
[2] = target: T2, ABF2 variable region (amino acids 234-337) bait, fused to the LexA DNA binding domain in pGilda (Arabidopsis) (UniProt P0A7C2+Q9M7Q4); assay: yeast two-hybrid screen (LexA system)
[3] = target: T2, ABF2 variable region (amino acids 234-337) bait, fused to the LexA DNA binding domain in pGilda (Arabidopsis); assay: yeast two-hybrid screen, Leu+/LacZ+ colonies

| binding [1] | binding [2] | binding [3] | Binder |
| --- | --- | --- | --- |
| binds | – | – | GST-ARIA fusion protein containing the arm repeat region (amino acids 1-518) (protein, not shown: a dimerising Fc or GST) MDQQPERREGRSFPERKGQKRKLEEGAAAVEDREISAVSTDGGQALLSEVAAQVSVLNSAFSWQESDRAAAKRATQVLAELAKNEDLVNVIVDGGAVPALMTHLQAPPYNDGDLAEKPYEHEVEKGSAFALGLLAIKPEYQKLIVDKGALPHLVNLLKRNKDGSSSRAVNSVIRRAADAITNLAHENSSIKTRVRVEGGIPPLVELLEFSDSKVQRAAAGALRTLAFKNDDNKNQIVECNALPTLILMLGSEDAAIHYEAVGVIGNLVHSSPHIKKEVLTAGALQPVIGLLSSCCPESQREAALLLGQFASTDSDCKVHIVQRGAVRPLIEMLQSPDVQLKEMSAFALGRLAQDAHNQAGIAHSGGLGPLLKLLDSRNGSLQHNAAFALYGLADNEDNVSDFIRVGGIQKLQDGEFIVQATKDCVSKTLKRLEEKIHGRVLRHLLYLMRISEKSIQRRVALALAHLCSPEDQRTIFIDDNGLELLLGLLGSLNTKQQLDGAAALYKLANKSMALSPVD |
| binds | – | – | GST-ARIA fusion protein containing the BTB domain (amino acids 511-710) (protein, not shown: a dimerising Fc or GST) SMALSPVDAAPPSPTQRVYLGEQYVNNATLSDVTFLVEGRTFYAHRICLLASSDAFRAMFDGGYREKDARDIEIPNIKWEVFELMMRFIYTGSVDITNEISKDLLRAADQYLLEGLKRLCEYTIAQDITLESIGDMYELSEAFHAMSLRQACIMFILEHFDKLSSMPWQNELVQRTIPEIREYFCRALTKSTTNLQSLRL |
| binds | – | – | GST-full-length ARIA fusion protein (protein, not shown: a dimerising Fc or GST) MDQQPERREGRSFPERKGQKRKLEEGAAAVEDREISAVSTDGGQALLSEVAAQVSVLNSAFSWQESDRAAAKRATQVLAELAKNEDLVNVIVDGGAVPALMTHLQAPPYNDGDLAEKPYEHEVEKGSAFALGLLAIKPEYQKLIVDKGALPHLVNLLKRNKDGSSSRAVNSVIRRAADAITNLAHENSSIKTRVRVEGGIPPLVELLEFSDSKVQRAAAGALRTLAFKNDDNKNQIVECNALPTLILMLGSEDAAIHYEAVGVIGNLVHSSPHIKKEVLTAGALQPVIGLLSSCCPESQREAALLLGQFASTDSDCKVHIVQRGAVRPLIEMLQSPDVQLKEMSAFALGRLAQDAHNQAGIAHSGGLGPLLKLLDSRNGSLQHNAAFALYGLADNEDNVSDFIRVGGIQKLQDGEFIVQATKDCVSKTLKRLEEKIHGRVLRHLLYLMRISEKSIQRRVALALAHLCSPEDQRTIFIDDNGLELLLGLLGSLNTKQQLDGAAALYKLANKSMALSPVDAAPPSPTQRVYLGEQYVNNATLSDVTFLVEGRTFYAHRICLLASSDAFRAMFDGGYREKDARDIEIPNIKWEVFELMMRFIYTGSVDITNEISKDLLRAADQYLLEGLKRLCEYTIAQDITLESIGDMYELSEAFHAMSLRQACIMFILEHFDKLSSMPWQNELVQRTIPEIREYFCRALTKSTTNLQSLRL |
| – | binds | binds | Group 2 positive clone (clone 20), two-hybrid library clone encoding the arm repeat protein ARIA (At5g19330) (protein, not shown: large carriers) ERREGRSFPERKGQKRKLEEGAAAVEDREISAVSTDGGQALLSEVAAQVSVLNSAFSWQESDRAAAKRATQVLAELAKNEDLVNVIVDGGAVPALMTHLQAPPYNDGDLAEKPYEHEVEKGSAFALGLLAIKPEYQKLIVDKGALPHLVNLLKRNKDGSSSRAVNSVIRRAADAITNLAHENSSIKTRVRVEGGIPPLVELLEFSDSKVQRAAAGALRTLAFKNDDNKNQIVECNALPTLILMLGSEDAAIHYEAVGVIGNLVHSSPHIKKEVLTAGALQPVIGLLSSCCPESQREAALLLGQFASTDSDCKVHIVQRGAVRPLIEMLQSPDVQLKEMSAFALGRLAQDAHNQAGIAHSGGLGPLLKLLDSRNGSLQHNAAFALYGLADNEDNVSDFIRVGGIQKLQDGEFIVQATKDCVSKTLKRLEEKIHGRVLRHLLYLMRISEKSIQRRVALALAHLCSPEDQRTIFIDDNGLELLLGLLGSLNTKQQLDGAAALYKLANKSMALSPVDAAPPSPTQRVYLGEQYVNNATLSDVTFLVEGRTFYAHRICLLASSDAFRAMFDGGYREKDARDIEIPNIKWEVFELMMRFIYTGSVDITNEISKDLLRAADQYLLEGLKRLCEYTIAQDITLESIGDMYELSEAFHAMSLRQACIMFILEHFDKLSSMPWQNELVQRTIPEIREYFCRALTKSTTNLQSLRL |
